In test [1] the target is NF-кB p50 subunit (human (endogenous in HepG2)) (UniProt P19838). The test is described as follows: co-IP; HepG2 cells transfected with myc-fused Annexin A2 (WT or K302A), treated 12 h without or with 3.75 μg/mL (20S)G-Rh2; whole-cell lysate IP with anti-NF-кB p50, anti-myc and anti-Annexin A2 antibody.
For test [2], the target named is non-tagged NF-кB p50 subunit (pEXS-p50) (human) (UniProt P19838). The test can be described thus: co-IP; lysates of E. coli BL21 (DE3) expressing non-tagged Annexin A2 or NF-кB p50 (1 mg each) mixed, 4 °C overnight, without or with 3.75 μg/mL (20S)G-Rh2; IP with anti-NF-кB p50 or anti-Annexin A2 antibody; 100 mM PBS, 125 mM NaCl.

Chains of the proteins cited; added tags and fusions are not shown. Lines headed by an entry give the natural chain unless they say otherwise; changes in a name come on top. Residues count along the entry.
UniProt P19838, residues 1-433: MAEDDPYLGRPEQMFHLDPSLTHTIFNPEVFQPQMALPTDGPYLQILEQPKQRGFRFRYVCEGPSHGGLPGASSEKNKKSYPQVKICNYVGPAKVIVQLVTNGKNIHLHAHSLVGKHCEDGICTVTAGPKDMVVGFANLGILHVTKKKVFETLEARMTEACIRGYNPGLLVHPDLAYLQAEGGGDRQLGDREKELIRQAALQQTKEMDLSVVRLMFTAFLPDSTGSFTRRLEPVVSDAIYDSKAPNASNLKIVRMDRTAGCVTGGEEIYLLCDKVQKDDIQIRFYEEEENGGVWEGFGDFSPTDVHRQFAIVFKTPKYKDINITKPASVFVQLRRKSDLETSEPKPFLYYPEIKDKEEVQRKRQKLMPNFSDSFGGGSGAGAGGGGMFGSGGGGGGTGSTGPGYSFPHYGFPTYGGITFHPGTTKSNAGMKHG
UniProt P07355: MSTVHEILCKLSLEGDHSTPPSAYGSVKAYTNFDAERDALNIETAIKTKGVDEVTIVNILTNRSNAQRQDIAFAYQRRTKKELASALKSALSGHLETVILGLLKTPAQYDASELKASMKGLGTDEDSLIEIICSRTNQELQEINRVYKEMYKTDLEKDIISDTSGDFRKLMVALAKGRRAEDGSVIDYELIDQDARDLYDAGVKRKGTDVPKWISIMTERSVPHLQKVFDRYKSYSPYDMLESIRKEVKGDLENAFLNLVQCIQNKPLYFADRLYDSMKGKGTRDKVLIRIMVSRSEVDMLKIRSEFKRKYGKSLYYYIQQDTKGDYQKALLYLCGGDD

Results are given in words; binding and its absence hold for the method and conditions named. In cells and extracts the contact can be indirect. Binding calls can cover weak binding; strength is not graded here.

Regarding Annexin A2-WT-myc (from UniProt P07355), the binding result in test [1] is on record as “binds”. Turning to “non-tagged Annexin A2 (pEXS-Annexin A2) (from UniProt P07355)”, in test [2], the binding result was “binds”. Consider “Annexin A2-K302A-myc (from UniProt P07355)”, for which the binding result in test [1] is on record as “binds”.

The values above are taken from article PMC5622071, “The identification of molecular target of (20S) ginsenoside Rh2 for its anti-cancer activity” (Scientific Reports, 2017).
